Results published in patent publication US20250382589A1, “SYNTHETIC OPERONS FOR THE PRODUCTION OF 2-MERCAPTOETHANE SULFONATE (COENZYME M) AND METHODS OF USING THE SAME” (priority 2024, published 2025).
Entries after “also recorded” stand apart in the source; their conditions may differ. At least one structure is not confirmed: it was looked up by name or label, or the drawing left a doubt. Some results were stated once for a whole list of compounds, not compound by compound.

What was measured:
[1] = tested on: M. acetivorans; assay: O2 stress assay (5% O2 headspace); assay type: cell-based, Methanosarcina acetivorans; conditions: headspace 5% O2; OD 600 nm
[2] = tested on: M. acetivorans; assay: H2O2 stress assay; assay type: cell-based, Methanosarcina acetivorans
[3] = tested on: Arabidopsis thaliana; assay: Supplementation of plants with CoM: biomass, aerial tissue, dry weight; assay type: in vivo; conditions: supplemented with CoM, versus GSH and control without antioxidant
[4] = tested on: plants; assay: Non-Photochemical Quenching with CoM in sterile media; assay type: in vivo; conditions: CoM supplemented in sterile media
[5] = cited from earlier work

O=S(=O)(O)CCS [CoM, 2-mercaptoethanesulfonate]
OD achieved [1]: ≤ 0.2
response to H2O2 ([2]; 1.0 mM H2O2 added at OD=0.4): cease growth
response to H2O2 ([2]; 2.0 mM H2O2 added at OD=0.4): resistant to lysis
H2O2 concentration resisted ([2]; stress assay): up to 2 mM
biomass yield / dry weight [3]: increases their dry weight; also recorded: increases of biomass yield
Non-Photochemical Quenching [4]: decrease
redox potential [5]: −271 mV
